32 compounds from PubChem BioAssay AID330 (DTP/NCI, 2004) can be followed below.

In this experiment the test system is P388 leukemia ip, CD2F1 mice, survival T/C. The experiment in a line: NCI In Vivo Anticancer Drug Screen. Data for tumor model P388 Leukemia (intraperitoneal) in CD2F1 (CDF1) mice. Conditions: T/C endpoint: median survival time, higher T/C = longer survival.
[1] abbreviates: dose: 50.0 mg/kg/injection, schedule: Q01DX005 (ip), vehicle: suspension in saline.
Where [2] appears, read: dose: 100.0 mg/kg/injection, schedule: Q01DX005 (ip), vehicle: suspension in saline.
[3] abbreviates: dose: 100.0 mg/kg/injection, schedule: Q01DX005 (ip), vehicle: saline.
Where [4] appears, read: dose: 200.0 mg/kg/injection, schedule: Q01DX005 (ip), vehicle: saline.
[5] abbreviates: dose: 25.0 mg/kg/injection, schedule: Q01DX009 (ip), vehicle: saline.
Where [6] appears, read: dose: 50.0 mg/kg/injection, schedule: Q01DX009 (ip), vehicle: saline.
The mark [7] stands for this setting: dose: 200.0 mg/kg/injection, schedule: Q01DX009 (ip), vehicle: saline.
[8] abbreviates: dose: 100.0 mg/kg/injection, schedule: Q01DX005 (ip), vehicle: saline with Tween-80.
[9] abbreviates: dose: 200.0 mg/kg/injection, schedule: Q01DX005 (ip), vehicle: saline with Tween-80.
Where [10] appears, read: dose: 120.0 mg/kg/injection, schedule: Q01DX005 (ip), vehicle: Klucel (hydroxypropylcellulose) (HPC).
The mark [11] stands for this setting: dose: 240.0 mg/kg/injection, schedule: Q01DX005 (ip), vehicle: Klucel (hydroxypropylcellulose) (HPC).
Setting [12] is: dose: 2.8 mg/kg/injection, schedule: Q01DX005 (ip), vehicle: Klucel (hydroxypropylcellulose) (HPC).
[13] abbreviates: dose: 120.0 mg/kg/injection, schedule: Q01DX005 (ip), vehicle: saline with Tween-80.
Where [14] appears, read: dose: 240.0 mg/kg/injection, schedule: Q01DX005 (ip), vehicle: saline with Tween-80.
[15] abbreviates: dose: 100.0 mg/kg/injection, schedule: Q01DX009 (ip), vehicle: saline.

SMILES strings stand for the structures. The list shows only some results of the screen, not a fair sample: it is rich in T/C values a quarter to a half above the control, in often repeated tests (any T/C) and in doses without a T/C. Other doses and runs of a compound stand elsewhere. T/C is the treated group as % of the vehicle group. Some doses have a count of surviving animals in place of a T/C: the source holds a T/C of zero for them, seemingly a mark for toxic or unscored doses. Some survivor counts are full or nearly so, which does not show that the dose was tolerated: the source hardly ever lists a survival T/C far under the control, and the zero likely stands for such cases as well. Survivors were counted at the toxicity check, usually on the fifth day, unless a day is given; later deaths do not show. Schedules are NCI's codes, read here as Q, the interval in days (D) or hours (H), X, the number of doses. Some doses were run more than once; the values are given in rising order. For survival time, the PubChem record calls one and a half times the control and up active, and a quarter to a half above the control has no call in these data; cut-offs in other NCI protocols can differ.

Turning to `CC(C)CNC(=O)OCc1c(COC(=O)NCC(C)C)c(-c2ccc(Cl)c(Cl)c2)n2c1CCC2`, the T/C (dose: 12.5 mg/kg/injection, schedule: Q01DX009 (ip), vehicle: distilled water + Tween-80, evaluated on day 30) is 148 % of control; the T/C (dose: 12.5 mg/kg/injection, schedule: Q01DX009 (ip), vehicle: distilled water + Tween-80, evaluated on day 45) was 144 % of control; the T/C (dose: 100.0 mg/kg/injection, schedule: Q01DX009 (ip), vehicle: distilled water + Tween-80) was 143 % of control.

As to `CC(C)(C)c1cc2c3c(c1)C(C(F)(F)F)(C(F)(F)F)OS3(O)OC2(C(F)(F)F)C(F)(F)F`, the survivor count runs as follows: under setting [1], 3 of 6; under setting [2], 0 of 6.

Turning to `COc1ccc2c(c1O)C13CCN(C)[C@@H](C2)C12CC2/C(=N/O)[C@H]3OC(C)=O` (stereo not given in full), the survivor count (dose: 200.0 mg/kg/injection, schedule: Q01DX005 (ip), vehicle: Klucel (hydroxypropylcellulose) (HPC)) is recorded as 2 of 6.

Consider `CC(=O)CC1CCCC(C#N)N1` (stereo not given), for which the survivor count was 0 of 5 under setting [3] and 0 of 5 under setting [4].

In the case of `CCC[CH2][Sn]([CH2]CCC)([CH2]CCC)[CH2]S(=O)(=O)O`, the survivor count was 1 of 6 under setting [5], 5 of 6 under setting [6] and 6 of 6 under setting [7].

On to `Cc1cc(=O)c2ccc3c(ccc4c(=O)cc(C)[nH]c43)c2[nH]1`, for which the survivor count is 3 of 6 (dose: 50.0 mg/kg/injection, schedule: Q01DX005 (ip), vehicle: saline with Tween-80); 1 of 6 under setting [8]; 1 of 6 under setting [9].

On to `O=C(O)c1ncn2c(=O)n(CCCl)nnc12`, for which the T/C was 140 % of control under setting [10] and 143 % of control under setting [11].

As to `CCOC(=O)Cn1/c(=N/N=C(\C)c2ccc([N+](=O)[O-])o2)sc2cc(Cl)ccc21`, for the setting “dose: 60.0 mg/kg/injection, schedule: Q01DX005 (ip), vehicle: Klucel (hydroxypropylcellulose) (HPC)”, the survivor count is 5 of 6.

`COc1cc([C@@H]2c3cc4c(cc3[C@H](O)[C@H]3COC(=O)[C@H]23)OCO4)cc(OC)c1OC`: the T/C is, setting by setting: (dose: 2.0 mg/kg/injection, schedule: Q01DX005 (ip), vehicle: Klucel (hydroxypropylcellulose) (HPC)) 130 % of control; (dose: 4.0 mg/kg/injection, schedule: Q01DX005 (ip), vehicle: Klucel (hydroxypropylcellulose) (HPC)) 128 % of control; (dose: 4.0 mg/kg/injection, schedule: Q01DX005 (ip), vehicle: saline with Tween-80) 136 % of control. In addition, the survivor count reads like this: (dose: 8.0 mg/kg/injection, schedule: Q01DX005 (ip), vehicle: saline with Tween-80) 4 of 6; (dose: 16.0 mg/kg/injection, schedule: Q01DX005 (ip), vehicle: saline with Tween-80) 4 of 6.

`CC(C)(C)c1cc(C(O)(C(F)(F)F)C(F)(F)F)c(S)c(C(O)(C(F)(F)F)C(F)(F)F)c1`: the survivor count by setting is: under setting [1], 2 of 6; under setting [2], 0 of 6; (dose: 200.0 mg/kg/injection, schedule: Q01DX005 (ip), vehicle: suspension in saline) 0 of 6.

Consider `CCCCCCCCCCC(O)C1CCC(C2CCC(C(O)C(=O)CCCCCCCCCCCC3CC(C)OC3=O)O2)O1` (stereo not given), for which the T/C (dose: 1.4 mg/kg/injection, schedule: Q01DX005 (ip), vehicle: Klucel (hydroxypropylcellulose) (HPC)) was 147 % of control and the T/C under setting [12] is 140 % of control. The survivor count under setting [12] is given as 6 of 6.

`CCCCCNc1ncnc2c(C)[nH]nc12`: where the note is “dose: 400.0 mg/kg/injection, schedule: Q01DX005 (ip), vehicle: Klucel (hydroxypropylcellulose) (HPC)”, the survivor count is given as 0 of 6.

On to `NC(=O)C1C=CN(Cc2ccccc2)C=C1`, for which, under setting [13], the T/C was 130 % of control. Also, under setting [14], the survivor count is 2 of 6.

For the compound `C1=CC=CCC=C1`, the T/C runs as follows: (dose: 25.0 mg/kg/injection, schedule: Q01DX009 (ip), vehicle: saline with Tween-80) 130 % of control; (dose: 50.0 mg/kg/injection, schedule: Q01DX009 (ip), vehicle: saline with Tween-80) 135 % of control.

As to `O=C1C(N=Nc2ccc(Cl)cc2)Sc2nc3ccccc3n21` (stereo not given), the survivor count under setting [11] is 6 of 6.

`COc1cc(NCCCCCNCC(C)(C)C)c2ncccc2c1`: the survivor count runs as follows: under setting [8], 0 of 6; under setting [9], 0 of 6.

For `NC(N)=NN=c1/c(=N\N=C(N)N)c2cc3ccccc3cc2/c1=N/N=C(N)N`, the survivor count is 1 of 6 (dose: 50.0 mg/kg/injection, schedule: Q01DX001 (ip), vehicle: saline) and 0 of 6 (dose: 100.0 mg/kg/injection, schedule: Q01DX001 (ip), vehicle: saline).

As for `O=C1OC2(CCCC2)OC(=O)C1=Cc1ccc([N+](=O)[O-])s1`, the survivor count (dose: 200.0 mg/kg/injection, schedule: Q01DX009 (ip), vehicle: saline with Tween-80) is reported as 3 of 6.

With `O=C(N1CCCCC1Cc1ccccc1)C(Cl)(Cl)Cl` (stereo not given), the survivor count is given as 0 of 6 under setting [10] and 0 of 6 under setting [11].

As to `OC1(C2NCCc3ccccc32)CCN(CCc2ccccc2)CC1` (stereo not given), for the setting “dose: 200.0 mg/kg/injection, schedule: Q01DX009 (ip), vehicle: Klucel (hydroxypropylcellulose) (HPC)”, the survivor count is 0 of 6.

Take `CCNC(C)(C)C(SS)c1ccc(C(F)(F)F)cc1` (stereo not given): where the note is “dose: 200.0 mg/kg/injection, schedule: Q04DX003 (ip), vehicle: saline with Tween-80”, the survivor count is recorded as 5 of 6.

As to `C[N+](C)=C1C=CC(=C2C=CSC=C2)C=C1`, the T/C reads like this: (dose: 3.12 mg/kg/injection, schedule: Q01DX009 (ip), vehicle: saline) 125 % of control; (dose: 6.25 mg/kg/injection, schedule: Q01DX009 (ip), vehicle: saline) 125 % of control. For the same compound, the survivor count is 6 of 6 under setting [5]; 1 of 6 and 2 of 6 under setting [6]; 0 of 6 under setting [15]; 0 of 6 under setting [7].

As for `COc1ccc(/C(=N\O)c2nccc3cc(OC)c(OC)cc23)cc1OC`, the survivor count under setting [13] is recorded as 6 of 6 and the survivor count under setting [14] was 6 of 6.

As for `O=C(Cn1nnc2ccccc21)N1CCN(c2ccccc2)CC1`, the survivor count under setting [14] was 6 of 6.

In the case of `Oc1[nH]c2ccccc2c1N=NC(=S)SCc1ccccc1`, the survivor count reads like this: under setting [6], 6 of 6; under setting [15], 6 of 6; under setting [7], 6 of 6.

On to `CC(C)CC(NC(=O)OCc1ccccc1)C(=O)O` (stereo not given), for which the survivor count under setting [9] is listed as 0 of 6.

Regarding `O=C(c1cc2c(cc1[N+](=O)[O-])OCO2)N1CCc2ccccc21`, where the note is “dose: 12.5 mg/kg/injection, schedule: Q01DX009 (ip), vehicle: other”, the T/C was 130 % of control.

Turning to `CCN(CC)CCCCCCNc1cc(OC)c(Cl)c2cccnc12`, the survivor count under setting [3] was 0 of 5 and the survivor count under setting [4] is on record as 0 of 5.

`CS/C(Nc1ccccc1)=C1\CCCn2c1nc1ccccc1c2=O`: the survivor count by setting is: (dose: 200.0 mg/kg/injection, schedule: Q01DX001 (ip), vehicle: saline with Tween-80) 5 of 6; (dose: 400.0 mg/kg/injection, schedule: Q01DX001 (ip), vehicle: saline with Tween-80) 2 of 6.

For `CC1OC(OC23C(=O)CC(C)(O)CC2(O)C=CC2=C3C(=O)c3ccc(C4CC(OC5CCC(OC6CC(O)C(O)C(C)O6)C(C)O5)C(O)C(C)O4)c(O)c3C2=O)CCC1O` (stereo not given), the survivor count by setting is: (dose: 8.0 mg/kg/injection, schedule: Q01DX005 (ip), vehicle: DMSO) 6 of 6; (dose: 50.0 mg/kg/injection, schedule: Q04DX003 (ip), vehicle: Klucel (hydroxypropylcellulose) (HPC)) 1 of 6 on day 9.

Regarding `COc1ccc2nc3cc(Cl)ccc3c(NCC3CCCN4CCCCC34)c2c1` (stereo not given), under “dose: 200.0 mg/kg/injection, schedule: Q01DX005 (ip), vehicle: distilled water + Tween-80”, the survivor count is 0 of 6.

Regarding `COC1(CO)C(=O)N(C)CC(=O)N1C` (stereo not given), the survivor count (dose: 240.0 mg/kg/injection, schedule: Q01DX005 (ip), vehicle: saline) is reported as 1 of 6.
